Source: paper PMC6063905
No constants are given. Whether binding was seen depends on the method and setting. Binding seen in cells or lysates may run through a third protein.

Columns and labels:
[1] = molecular target: T1, Ldb16-TAP (yeast (endogenous in strains isogenic to BY4741 or BY4742)) (UniProt P25587); test: co-IP; TAP-tagged bait isolated overnight on calmodulin sepharose 4B beads from crude membranes solubilised in 1% digitonin; 50 mM Tris pH 7.4, 150 mM NaCl, 2 mM MgCl2, 4 °C; eluates analysed by SDS-PAGE and immunoblotting
T1 sequence: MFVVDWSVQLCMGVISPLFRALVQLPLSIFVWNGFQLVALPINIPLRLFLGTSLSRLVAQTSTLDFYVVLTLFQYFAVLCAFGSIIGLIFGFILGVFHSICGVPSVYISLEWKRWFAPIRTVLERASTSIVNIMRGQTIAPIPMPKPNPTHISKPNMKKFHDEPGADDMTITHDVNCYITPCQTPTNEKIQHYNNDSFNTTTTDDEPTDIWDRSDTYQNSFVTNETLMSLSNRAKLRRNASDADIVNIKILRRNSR

[2] = molecular target: T2, Fld1-TAP (yeast (endogenous in strains isogenic to BY4741 or BY4742)) (UniProt Q06058); test: as above
T2 sequence: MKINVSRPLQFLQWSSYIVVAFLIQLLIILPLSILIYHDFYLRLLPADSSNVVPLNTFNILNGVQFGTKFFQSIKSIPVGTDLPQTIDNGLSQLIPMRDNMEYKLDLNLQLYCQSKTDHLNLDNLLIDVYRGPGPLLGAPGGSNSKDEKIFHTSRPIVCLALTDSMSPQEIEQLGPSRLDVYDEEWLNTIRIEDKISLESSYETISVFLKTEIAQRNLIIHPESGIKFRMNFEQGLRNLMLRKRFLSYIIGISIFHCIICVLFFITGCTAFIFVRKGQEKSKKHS

- binding [1]: no binding
- binding [2]: no binding
B1: Pex30 (protein, UniProt Q06169 1-523)
chain: MSGNTTNVHETRAKFAETLQPRIGGNTTKVIRAALEKNEAESGVSEDNDNGSLEKVNVATSPLLTSTPPTISKALVKLYPYLILIDEFLNVVTWTGKNIWSSVLMLCLFITTVEYFETLVKYFGHLAIIAILWGYSLLDNYIEGTLSSSPTLEDIALLMNRVSLKSDILLSPMVNLGTQDIQRLLYTTVILSPIYVMITWLLLPPRSLMLMVGMFLLTYHSPWSKVARRLLWKFKIVRLLVFYVTGLDLGGINKDQGIFATVQKQVKKLASTENSNGVLSDSKPIRFTYVLYENQRRWLGIGWKPSMLSYERTPWTDEFLNEAPSPENFHLPEETNTMVWRWVDKTWRLDMTNDGAIQVPNSKARTSADPSPDEGFIYYDNTWKKPSKEDSFSKYTRRRRWVRTAELVKTSDFDESVINSNRNSAIEQKVEENSTNGLTAEQELGSNKQEKDNAKKVGEPTTEETKEFAEASNINEGEFERISSTDEEVLKSRARDRLAKVLDDTEEKEQSNPTIGRDSKKAV
